Measured values from patent US10485769B2, “Cholesteryl ester transfer protein (CETP) inhibition in the treatment of cancer” (KING ABDULLAH UNIVERSITY OF SCIENCE AND TECHNOLOGY, priority 2015, dated 2019).
Some results were stated once for a whole list of compounds, not compound by compound. At least one structure is not confirmed: it was looked up by name or label, or the drawing left a doubt.

How the values were obtained:
BJ cells = test: Total cholesterol in cells, Amplex Red Cholesterol kit; assay type: cell-based, human; conditions: 10 μM, 2 h, relative to untreated cells
BT20 cells = test: as above; assay type: cell-based, human; conditions: 10 μM, 2 h, relative to untreated cells

SMILES: CC(=O)Oc1cccc2c1C(=O)C=C(C)C2=O [AP, Acetyl Plumbagin]
- reduction in total cholesterol (BJ cells): 3-6%
- reduction in total cholesterol (BT20 cells): 3-6%
